We go through one compound from patent US20180327367A1, “MACROCYCLIC BROAD SPECTRUM ANTIBIOTICS” (priority 2015, published 2018).

≈ marks a conversion by molar mass, not a printed value.

The test system of this assay is Escherichia coli MC4100 harboring the IMP4213 (E. coli IMP). In words: microbe, parasite or virus in culture. In kind it is cell-based. Conditions: 22 h, read-out: MIC (μg/mL) E. coli IMP, E. coli MC4100 IMP4213, increased outer-membrane permeability, 35° C. How it is done: In vitro antimicrobial activity of each compound was determined by measuring minimal inhibitor concentrations (MICs) using the broth micro-dilution technique as approved by the Clinical and Laboratory Standards Institute (CLSI) (Methods for Dilution Antimicrobial Susceptibility Tests for Bacteria that Grow Aerobically; Approved Standard—Eighth Edition. CLSI document M07-A8. Wayne, Pa.: Clinical and Laboratory Standards; 2009). Antibacterial activity was measure against three strains of bacteria: a Methicillin Resistant Staphylococcus aureus strain USA 300, NRS384 (S. aureus); a strain of Escherichia coli MC4100 harboring the IMP4213 (E. coli IMP), which results in increased outer-membrane permeability (B Martin and Silhavy T. Imp/OstA is required for cell envelope biogenesis in Escherichia coli. (2002) Molecular Microbiology, 45(5), 1289-1302), and Escherichia coli ATCC 25922 (E. coli), a clinically relevant Gram-negative strain. Cells were inoculated onto plates of Trypyticase Soy Agar or Luria Agar respectively and grown at 35° C. for 20 hours. Inocula suspensions were prepared by scraping cells into 1 mL of testing media (cation adjusted Mueller Hinton Broth supplemented with 0.002% v/v Tween-80) and diluting to a final OD600 nm of 0.01.
Test compounds were prepared in DMSO at a concentration of 10 mg/mL. […]

Regarding `Cc1cc(Oc2ccc(C(C)(C)C)cc2)ccc1C(=O)N[C@@H](CCN)C(=O)N(C)[C@@H]1C(=O)N[C@@H](C)C(=O)N[C@H](C(=O)NCC#N)Cc2ccc(OCCN)c(c2)-c2cc1ccc2OCCN` [Compound 302], the MIC amounted to 0.016 µg/mL (≈ 0.0177 µM).
